# Data from article PMC7878818.
# No constants are given. Whether binding was seen depends on the method and setting. Binding seen in cells or lysates may run through a third protein. Some results given as binding are weak or reduced against the parent protein; the word gives no strength. Where a sequence is shown, tags or fusion partners need not be part of it.
# T1: Flag-tagged C11orf84 (human), Q9BUA3
# T1 chain: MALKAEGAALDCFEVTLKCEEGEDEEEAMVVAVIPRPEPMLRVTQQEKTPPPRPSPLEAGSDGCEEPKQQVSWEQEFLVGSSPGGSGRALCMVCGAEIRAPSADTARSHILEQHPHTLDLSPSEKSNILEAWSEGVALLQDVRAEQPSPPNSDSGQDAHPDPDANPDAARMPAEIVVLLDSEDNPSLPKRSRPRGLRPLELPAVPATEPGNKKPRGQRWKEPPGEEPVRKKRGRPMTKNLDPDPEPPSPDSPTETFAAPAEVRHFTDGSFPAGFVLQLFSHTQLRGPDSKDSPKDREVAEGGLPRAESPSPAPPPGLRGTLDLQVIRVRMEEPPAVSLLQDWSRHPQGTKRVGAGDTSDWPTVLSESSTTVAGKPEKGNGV
# T2: C11orf84 (wild type, tagged, expressed in HEK293T cells) (human), Q9BUA3
# T2 chain: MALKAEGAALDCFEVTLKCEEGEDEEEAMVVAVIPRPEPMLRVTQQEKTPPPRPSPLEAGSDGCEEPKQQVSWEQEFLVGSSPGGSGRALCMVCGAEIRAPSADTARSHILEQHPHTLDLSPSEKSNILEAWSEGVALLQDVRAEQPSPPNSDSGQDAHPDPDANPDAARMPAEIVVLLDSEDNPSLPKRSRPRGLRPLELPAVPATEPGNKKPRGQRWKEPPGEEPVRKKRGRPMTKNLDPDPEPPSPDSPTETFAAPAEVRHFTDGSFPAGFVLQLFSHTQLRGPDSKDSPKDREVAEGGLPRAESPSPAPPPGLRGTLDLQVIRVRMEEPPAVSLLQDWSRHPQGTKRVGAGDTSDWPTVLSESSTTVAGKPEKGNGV
# Key:
# [1] = target: T1, Flag-tagged C11orf84 (human), Q9BUA3; assay: co-IP; Flag- and Myc-tagged plasmids co-transfected into HEK293T; lysate in NP40 buffer (50 mM Tris pH 7.5, 150 mM NaCl, 1 mM EDTA, 1% NP40); anti-Flag M2 beads 1 h; immunoblot; details: remark: other sources report otherwise
# [2] = target: T2, C11orf84 (wild type, tagged, expressed …); assay: co-IP; HEK293T co-transfected with Flag- and Myc-tagged plasmids; NP40 buffer (50 mM Tris pH 7.5, 150 mM NaCl, 1 mM EDTA, 1% NP40); anti-Flag M2 beads, 1 h; immunoblot; details: remark: other sources report otherwise
# [3] = target: Flag-tagged C11orf84 (human) (UniProt Q9BUA3); assay: co-IP; Flag- and Myc-tagged plasmids co-transfected into HEK293T; lysate in NP40 buffer (50 mM Tris pH 7.5, 150 mM NaCl, 1 mM EDTA, 1% NP40); anti-Flag M2 beads 1 h; immunoblot
binding [3],Binder,further results
–,Myc-tagged Spindlin4 (protein) MSPPTVPPMGVDGVSAYLMKKRHTHRKQRRKPTFLTRRNIVGCRIQHGWKEGNEPVEQWKGTVLEQVSVKPTLYIIKYDGKDSVYGLELHRDKRVLALEILPERVPTPRIDSRLADSLIGKAVEHVFEGEHGTKDEWKGMVLARAPVMDTWFYITYEKDPVLYMYTLLDDYKDGDLRIIPDSNYYFPTAEQEPGEVVDSLVGKQVEHAKDDGSKRTGIFIHQVVAKPSVYFIKFDDDIHIYVYGLVKTP,binding [1]: binds
–,"Spindlin4, Q56A73 1-249 (protein) MSPPTVPPMGVDGVSAYLMKKRHTHRKQRRKPTFLTRRNIVGCRIQHGWKEGNEPVEQWKGTVLEQVSVKPTLYIIKYDGKDSVYGLELHRDKRVLALEILPERVPTPRIDSRLADSLIGKAVEHVFEGEHGTKDEWKGMVLARAPVMDTWFYITYEKDPVLYMYTLLDDYKDGDLRIIPDSNYYFPTAEQEPGEVVDSLVGKQVEHAKDDGSKRTGIFIHQVVAKPSVYFIKFDDDIHIYVYGLVKTP",binding [2]: binds
binds,Myc-tagged Spindlin2A (protein) MKTPNAQEAEGQQTRAAAGRATGSANMTKKKVSQKKQRGRPSSQPCRNIVGCRISHGWKEGDEPITQWKGTVLDQVPINPSLYLVKYDGIDCVYGLELHRDERVLSLKILSDRVASSHISDANLANTIIGKAVEHMFEGEHGSKDEWRGMVLAQAPIMKAWFYITYEKDPVLYMYQLLDDYKEGDLRIMPESSESPPTEREPGGVVDGLIGKHVEYTKEDGSKRIGMVIHQVETKPSVYFIKFDDDFHIYVYDLVKKS,–
binds,Myc-tagged Spindlin2B (protein) MKTPNAQEAEGQQTRAAAGRATGSANMTKKKVSQKKQRGRPSSQPRRNIVGCRISHGWKEGDEPITQWKGTVLDQVPINPSLYLVKYDGIDCVYGLELHRDERVLSLKILSDRVASSHISDANLANTIIGKAVEHMFEGEHGSKDEWRGMVLAQAPIMKAWFYITYEKDPVLYMYQLLDDYKEGDLRIMPESSESPPTEREPGGVVDGLIGKHVEYTKEDGSKRIGMVIHQVEAKPSVYFIKFDDDFHIYVYDLVKKS,–
binds,Myc-tagged Spindlin3 (protein) MKTPFGKAAAGQRSRTGAGHGSVSVTMIKRKAAHKKHRSRPTSQPRGNIVGCRIQHGWKDGDEPLTQWKGTVLDQVPVNPSLYLIKYDGFDCVYGLELHRDERVSSLEVLPNRVASSRISDTHLAEIMVGKAVEHIFETEEGSKNEWRGMVLAQAPVMNTWFYITYEKDPVLYMYQLLDDYKDGDLRILQDSNDSPLAEREPGEVIDSLVGKQVEYAKDDGSKRTGMVIHQVEAKPSVYFIKFDDDFHIYVYDLVKTS,–
